{"source": "PubChem BioAssay AID504791, Drosophila RNAi Screening Center, 2011", "test": "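Factors in Argonaute-based small RNA production and activity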 (primary screen)", "system": "Drosophila S2-derived reporter cells", "reagent": "long dsRNA against Drosophila genes, about 150-250 ng dsRNA per well (siRNA assay); about 80-120 ng (miRNA assay)", "time to read-out": "about 5 days (siRNA assay); about 4 days (miRNA assay)", "conditions": "copper sulfate induction of reporters: 25 µM (siRNA assay); 200 mM stated (miRNA assay), 1-2 days before reading", "measured": "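Per-well ratio of Renilla over firefly light, expressed relative to that plate's average ratio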", "units": "stable assay Renilla, run 1 in luminescence; stable assay firefly, run 1 in luminescence", "rule for the call": "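First-pass picks had plate-scaled ratios over 1.5 for the siRNA assay, over 1.6 for the miRNA assay, or under 0.6; two distinct dsRNAs had to score alike on retest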", "note": "The deposit covers about 23,000 reagents; shown is an unselected part of those with a known target gene and a result. Of all reagents, 199 (0.86%) are marked active. 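Plate-scaled ratios behind the calls are not deposited; printed light signals are raw; many rows marked increased or decreased are still called inactive.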 Names joined by + are all predicted targets of the reagent. The record does not give: the direction of the score."}
{"predicted target": "Rm62", "dsRNA": "DRSC12365", "stable assay Renilla, run 1": 7106, "stable assay firefly, run 1": 5.17e5, "activity call": "inactive"}
{"predicted target": "Polr3D (RNA polymerase III subunit D)", "dsRNA": "DRSC10485", "stable assay Renilla, run 1": 7260, "stable assay firefly, run 1": 3.50e5, "activity call": "inactive"}
{"predicted target": "CAH3 (Carbonic anhydrase 3)", "dsRNA": "DRSC17776", "stable assay Renilla, run 1": 5403, "stable assay firefly, run 1": 3.68e5, "activity call": "inactive"}
{"predicted target": "PIP5K59B (Phosphatidylinositol 4-phosphate 5-kinase 59B)", "dsRNA": "DRSC04290", "stable assay Renilla, run 1": 97257, "stable assay firefly, run 1": 2.74e5, "activity call": "inactive"}
{"predicted target": "PIP5K59B (Phosphatidylinositol 4-phosphate 5-kinase 59B)", "dsRNA": "DRSC04403", "stable assay Renilla, run 1": 7236, "stable assay firefly, run 1": 3.43e5, "activity call": "inactive"}
{"predicted target": "Ste:CG33238 + Ste:CG33241 + Ste:CG33236 + 11 more", "dsRNA": "DRSC19004", "stable assay Renilla, run 1": 4087, "stable assay firefly, run 1": 2.85e5, "activity call": "inactive"}
{"predicted target": "Ste:CG33238 + Ste:CG33241 + Ste:CG33236 + 11 more", "dsRNA": "DRSC21260", "stable assay Renilla, run 1": 6146, "stable assay firefly, run 1": 3.44e5, "activity call": "inactive"}
{"predicted target": "CG31741", "dsRNA": "DRSC02887", "stable assay Renilla, run 1": 7376, "stable assay firefly, run 1": 4.43e5, "activity call": "inactive"}
{"predicted target": "mIF3 (mitochondrial translation initiation factor 3)", "dsRNA": "DRSC06290", "stable assay Renilla, run 1": 6947, "stable assay firefly, run 1": 3.48e5, "activity call": "inactive"}
{"predicted target": "Osi10b (Osiris 10b)", "dsRNA": "DRSC12279", "stable assay Renilla, run 1": 7160, "stable assay firefly, run 1": 4.41e5, "activity call": "inactive"}
{"predicted target": "rg (rugose)", "dsRNA": "DRSC17377", "stable assay Renilla, run 1": 8331, "stable assay firefly, run 1": 4.18e5, "activity call": "inactive"}
{"predicted target": "rg (rugose)", "dsRNA": "DRSC17726", "stable assay Renilla, run 1": 8663, "stable assay firefly, run 1": 6.48e5, "activity call": "inactive"}
{"predicted target": "rg (rugose)", "dsRNA": "DRSC18049", "stable assay Renilla, run 1": 5623, "stable assay firefly, run 1": 3.64e5, "activity call": "inactive"}

A few values from the entries so far:
Value for PIP5K59B (Phosphatidylinositol 4-phosphate 5-kinase 59B) [DRSC04290] in “stable assay Renilla, run 1”: 97257
Ste:CG33238 + Ste:CG33241 + Ste:CG33236 + 11 more [DRSC21260], stable assay firefly, run 1 = 3.44e5
